This is an account of results in article PMC10154458.

Protein sequences, listed by entry. Tags and fused reporters are not part of them.
UniProt P63045: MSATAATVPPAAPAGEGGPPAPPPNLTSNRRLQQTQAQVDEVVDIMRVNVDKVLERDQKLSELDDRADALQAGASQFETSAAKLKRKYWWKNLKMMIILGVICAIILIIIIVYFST
UniProt P60881: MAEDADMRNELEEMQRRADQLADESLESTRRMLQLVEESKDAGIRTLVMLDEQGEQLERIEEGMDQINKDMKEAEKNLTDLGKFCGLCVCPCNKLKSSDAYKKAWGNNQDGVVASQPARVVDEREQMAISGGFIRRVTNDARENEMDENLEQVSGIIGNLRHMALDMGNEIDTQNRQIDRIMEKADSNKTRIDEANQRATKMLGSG

In one assay the target is T1, GST-SNAPIN (UniProt P60192).
T1 sequence: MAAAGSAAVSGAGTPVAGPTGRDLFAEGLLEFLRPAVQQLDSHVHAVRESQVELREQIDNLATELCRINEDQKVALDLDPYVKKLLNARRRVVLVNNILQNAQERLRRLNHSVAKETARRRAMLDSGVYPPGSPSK
Kind of assay: pull-down; GST-SNAP25 (GST-SNAPIN in Figure 3C) used to pull down the co-transfected SNARE protein from total extracts of 293T cells, with GFP vector or GFP-SNAP23 (WT, truncated or mutant) co-expressed; Western blot; only the target purified. Background: A western blot detects proteins with antibodies after separation by electrophoresis.

Another assay concerns the target T2, mCherry-STX3 (UniProt Q08849).
T2 sequence: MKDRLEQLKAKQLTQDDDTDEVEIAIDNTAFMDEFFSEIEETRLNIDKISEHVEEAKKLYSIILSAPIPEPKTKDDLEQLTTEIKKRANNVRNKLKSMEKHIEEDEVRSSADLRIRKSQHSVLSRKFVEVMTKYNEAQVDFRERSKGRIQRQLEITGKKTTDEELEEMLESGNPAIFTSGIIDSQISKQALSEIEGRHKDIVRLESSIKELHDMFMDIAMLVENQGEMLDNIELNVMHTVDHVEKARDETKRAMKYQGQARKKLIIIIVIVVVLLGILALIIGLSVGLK
Kind of assay: co-IP; 293T cells co-transfected with GFP-SNAP23 (WT, truncated or mutant) and an mCherry-tagged SNARE protein; lysates in NP-40 buffer (1% NP-40, 150 mM NaCl, 50 mM Tris Base, 1% Triton X-100) immunoprecipitated with anti-mCherry antibody at 4°C, blotted with anti-GFP.

In another assay the target is mCherry-VAMP2 (UniProt P63045). Described as above.
A further assay has as its target T3, mCherry-VAMP8 (UniProt Q9WUF4).
T3 sequence: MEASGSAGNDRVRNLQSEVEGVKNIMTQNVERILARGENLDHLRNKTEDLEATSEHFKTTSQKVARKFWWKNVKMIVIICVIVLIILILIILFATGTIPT
The description is as above.

The target in another assay is GST-tagged SNAP25 (UniProt P60881). The assay is described as follows: pull-down; GST-SNAP25 (GST-SNAPIN in Figure 3C) used to pull down the co-transfected SNARE protein from total extracts of 293T cells, with GFP vector or GFP-SNAP23 (WT, truncated or mutant) co-expressed; Western blot; only the target purified.

Where a chain is given by its changes, count along the chain named. Names may count otherwise. No constants are given. Whether binding was seen depends on the method and setting. In cells and extracts the contact can be indirect. Some results given as binding are weak or reduced against the parent protein; the word gives no strength. For some assays here: Tags and fused reporters may be left off the sequences shown.

Consider “SNAP25 co-transfected in 293T cells (Figure 3C) (from UniProt P60881 1-206)”, for which the binding result in the assay with GST-SNAPIN is recorded as “binds”.

B1: GFP-SNAP23 S95D (protein, UniProt O70377 1-210)
chain: MDDLSPEEIQLRAHQVTDESLESTRRILGLAIESQDAGIKTITMLDEQGEQLNRIEEGMDQINKDMREAEKTLTELNKCCGLCVCPCNRTKNFEDGKNYKATWGDGGDSSPSNVVSKQPSRITNGQPQQTTGAASGGYIKRITNDAREDEMEENLTQVGSILGNLKNMALDMGNEIDAQNQQIQKITEKADTNKNRIDIANTRAKKLIDS
With B1, the binding entry with mCherry-STX3, in the assay with mCherry-VAMP2 and with mCherry-VAMP8 was “binds” each time.

B2: GFP-tagged full-length WT SNAP23 (amino acids 1-210) (protein, UniProt O70377 1-210)
chain: B1 chain with D95S
With B2, the binding entry in the assay with mCherry-STX3, with mCherry-VAMP2 and with mCherry-VAMP8 was “binds” each time.

B3: mCherry-VAMP8 (protein, UniProt Q9WUF4 1-100)
chain: T3 sequence
On to B3, for which, in the assay with GST-tagged SNAP25, the binding result is recorded as “binds”.
